# Several values for one entry are separate records, joined by “and”; a condition that tells them apart may be missing. Equal entries are not always repeated. The shares of active, inactive and inconclusive entries below differ from those in the screen. For some assays here: A potency beside an inconclusive call is a rough fit, not a confirmed value. The source holds several records for some structures; these can differ, active in one and inactive in another. Activity calls are given as the source filed them. The calls were made as follows: active = hit-call score of the fitted dose curve at least 0.9, where 1 is the maximum; inconclusive = response in the unintended direction; inactive = score below 0.9.
# The chains behind the UniProt entries cited, without tags or fusion partners. Where a name states a change or a piece, a line headed by the entry shows the natural chain unless it says otherwise.
# UniProt P08684, whole entry, looked up: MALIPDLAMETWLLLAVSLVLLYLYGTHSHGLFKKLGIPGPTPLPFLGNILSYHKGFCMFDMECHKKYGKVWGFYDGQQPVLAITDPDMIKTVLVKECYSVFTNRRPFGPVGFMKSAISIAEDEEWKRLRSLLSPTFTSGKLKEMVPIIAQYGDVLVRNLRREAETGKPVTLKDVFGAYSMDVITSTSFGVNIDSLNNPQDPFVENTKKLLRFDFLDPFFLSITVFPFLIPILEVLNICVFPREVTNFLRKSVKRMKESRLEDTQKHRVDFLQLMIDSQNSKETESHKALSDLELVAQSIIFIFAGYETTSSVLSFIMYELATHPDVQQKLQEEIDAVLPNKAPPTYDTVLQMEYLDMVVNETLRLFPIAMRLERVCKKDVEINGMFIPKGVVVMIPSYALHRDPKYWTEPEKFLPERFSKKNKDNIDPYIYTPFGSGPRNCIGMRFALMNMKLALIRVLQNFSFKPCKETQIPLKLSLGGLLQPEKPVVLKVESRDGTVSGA
# UniProt P62136, whole entry, looked up: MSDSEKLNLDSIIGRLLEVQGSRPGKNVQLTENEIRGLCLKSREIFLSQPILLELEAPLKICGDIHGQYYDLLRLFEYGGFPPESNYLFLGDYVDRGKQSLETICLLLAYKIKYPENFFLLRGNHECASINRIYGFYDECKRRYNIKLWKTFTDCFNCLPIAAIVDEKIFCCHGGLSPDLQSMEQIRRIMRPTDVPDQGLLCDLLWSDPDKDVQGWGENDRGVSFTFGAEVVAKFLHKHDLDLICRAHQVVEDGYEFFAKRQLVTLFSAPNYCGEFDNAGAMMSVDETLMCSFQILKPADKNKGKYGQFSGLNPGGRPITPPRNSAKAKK
# UniProt P15204: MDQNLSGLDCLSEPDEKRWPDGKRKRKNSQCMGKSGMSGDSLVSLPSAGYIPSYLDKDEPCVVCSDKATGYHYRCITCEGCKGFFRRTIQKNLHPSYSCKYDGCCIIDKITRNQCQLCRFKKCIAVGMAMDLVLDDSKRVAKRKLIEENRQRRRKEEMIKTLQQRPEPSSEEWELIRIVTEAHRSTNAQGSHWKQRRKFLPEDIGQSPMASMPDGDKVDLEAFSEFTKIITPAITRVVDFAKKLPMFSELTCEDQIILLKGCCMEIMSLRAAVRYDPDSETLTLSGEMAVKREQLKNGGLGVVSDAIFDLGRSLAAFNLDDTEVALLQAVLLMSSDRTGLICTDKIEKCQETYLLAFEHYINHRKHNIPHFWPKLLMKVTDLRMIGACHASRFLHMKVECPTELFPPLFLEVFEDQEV
# UniProt P57717: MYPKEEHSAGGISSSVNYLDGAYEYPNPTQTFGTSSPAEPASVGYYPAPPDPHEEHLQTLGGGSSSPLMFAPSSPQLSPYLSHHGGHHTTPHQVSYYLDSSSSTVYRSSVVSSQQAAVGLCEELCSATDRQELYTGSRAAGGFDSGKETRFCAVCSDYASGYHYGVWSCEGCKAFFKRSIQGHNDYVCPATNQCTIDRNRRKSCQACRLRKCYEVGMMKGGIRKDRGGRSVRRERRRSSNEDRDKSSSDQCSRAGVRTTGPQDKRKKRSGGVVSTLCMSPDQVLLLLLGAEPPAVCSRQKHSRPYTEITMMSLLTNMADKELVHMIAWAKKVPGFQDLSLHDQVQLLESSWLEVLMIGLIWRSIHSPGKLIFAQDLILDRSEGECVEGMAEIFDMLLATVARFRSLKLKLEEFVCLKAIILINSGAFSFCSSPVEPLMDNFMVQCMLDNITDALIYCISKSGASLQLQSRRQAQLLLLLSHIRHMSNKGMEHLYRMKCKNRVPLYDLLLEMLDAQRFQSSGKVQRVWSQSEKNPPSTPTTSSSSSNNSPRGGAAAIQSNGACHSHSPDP
# UniProt P29350: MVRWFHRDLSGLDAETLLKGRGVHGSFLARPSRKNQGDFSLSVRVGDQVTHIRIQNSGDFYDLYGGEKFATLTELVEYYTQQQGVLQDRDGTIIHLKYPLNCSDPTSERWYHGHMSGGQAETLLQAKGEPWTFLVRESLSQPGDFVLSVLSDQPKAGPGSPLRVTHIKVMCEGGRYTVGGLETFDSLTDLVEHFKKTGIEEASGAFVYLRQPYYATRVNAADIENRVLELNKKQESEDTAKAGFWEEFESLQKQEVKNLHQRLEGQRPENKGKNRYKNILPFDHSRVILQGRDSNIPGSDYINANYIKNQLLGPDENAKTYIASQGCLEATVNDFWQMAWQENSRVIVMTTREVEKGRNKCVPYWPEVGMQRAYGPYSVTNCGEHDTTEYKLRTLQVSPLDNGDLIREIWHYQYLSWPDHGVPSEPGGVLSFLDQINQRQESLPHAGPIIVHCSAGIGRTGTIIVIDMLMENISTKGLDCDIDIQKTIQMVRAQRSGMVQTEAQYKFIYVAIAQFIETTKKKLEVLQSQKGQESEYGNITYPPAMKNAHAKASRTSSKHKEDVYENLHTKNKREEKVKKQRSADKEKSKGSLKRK
# UniProt P21709: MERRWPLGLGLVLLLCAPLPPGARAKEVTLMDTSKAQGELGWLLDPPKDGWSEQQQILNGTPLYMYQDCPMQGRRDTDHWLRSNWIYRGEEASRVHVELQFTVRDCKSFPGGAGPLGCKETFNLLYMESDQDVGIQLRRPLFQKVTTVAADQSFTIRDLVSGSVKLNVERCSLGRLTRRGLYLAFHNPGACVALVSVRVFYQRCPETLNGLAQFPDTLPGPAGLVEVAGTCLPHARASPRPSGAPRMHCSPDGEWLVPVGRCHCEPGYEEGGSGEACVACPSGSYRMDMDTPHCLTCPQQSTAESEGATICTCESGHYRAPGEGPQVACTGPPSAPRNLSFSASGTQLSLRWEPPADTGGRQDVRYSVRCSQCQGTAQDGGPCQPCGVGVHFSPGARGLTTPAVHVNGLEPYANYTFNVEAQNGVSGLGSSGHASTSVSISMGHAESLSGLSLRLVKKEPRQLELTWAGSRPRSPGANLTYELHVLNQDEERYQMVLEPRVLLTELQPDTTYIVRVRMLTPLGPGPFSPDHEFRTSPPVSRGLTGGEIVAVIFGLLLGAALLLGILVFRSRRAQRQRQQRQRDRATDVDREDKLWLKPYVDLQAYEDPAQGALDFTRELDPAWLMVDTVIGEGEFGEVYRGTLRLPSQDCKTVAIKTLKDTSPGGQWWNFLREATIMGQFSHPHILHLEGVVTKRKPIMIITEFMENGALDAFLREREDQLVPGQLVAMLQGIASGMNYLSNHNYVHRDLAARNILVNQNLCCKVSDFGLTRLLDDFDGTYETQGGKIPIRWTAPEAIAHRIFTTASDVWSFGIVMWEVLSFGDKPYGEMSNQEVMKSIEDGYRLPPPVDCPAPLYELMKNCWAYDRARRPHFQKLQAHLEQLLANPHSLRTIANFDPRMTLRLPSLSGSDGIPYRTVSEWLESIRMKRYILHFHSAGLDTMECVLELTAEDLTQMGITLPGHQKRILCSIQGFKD
# UniProt P42336, whole entry, looked up: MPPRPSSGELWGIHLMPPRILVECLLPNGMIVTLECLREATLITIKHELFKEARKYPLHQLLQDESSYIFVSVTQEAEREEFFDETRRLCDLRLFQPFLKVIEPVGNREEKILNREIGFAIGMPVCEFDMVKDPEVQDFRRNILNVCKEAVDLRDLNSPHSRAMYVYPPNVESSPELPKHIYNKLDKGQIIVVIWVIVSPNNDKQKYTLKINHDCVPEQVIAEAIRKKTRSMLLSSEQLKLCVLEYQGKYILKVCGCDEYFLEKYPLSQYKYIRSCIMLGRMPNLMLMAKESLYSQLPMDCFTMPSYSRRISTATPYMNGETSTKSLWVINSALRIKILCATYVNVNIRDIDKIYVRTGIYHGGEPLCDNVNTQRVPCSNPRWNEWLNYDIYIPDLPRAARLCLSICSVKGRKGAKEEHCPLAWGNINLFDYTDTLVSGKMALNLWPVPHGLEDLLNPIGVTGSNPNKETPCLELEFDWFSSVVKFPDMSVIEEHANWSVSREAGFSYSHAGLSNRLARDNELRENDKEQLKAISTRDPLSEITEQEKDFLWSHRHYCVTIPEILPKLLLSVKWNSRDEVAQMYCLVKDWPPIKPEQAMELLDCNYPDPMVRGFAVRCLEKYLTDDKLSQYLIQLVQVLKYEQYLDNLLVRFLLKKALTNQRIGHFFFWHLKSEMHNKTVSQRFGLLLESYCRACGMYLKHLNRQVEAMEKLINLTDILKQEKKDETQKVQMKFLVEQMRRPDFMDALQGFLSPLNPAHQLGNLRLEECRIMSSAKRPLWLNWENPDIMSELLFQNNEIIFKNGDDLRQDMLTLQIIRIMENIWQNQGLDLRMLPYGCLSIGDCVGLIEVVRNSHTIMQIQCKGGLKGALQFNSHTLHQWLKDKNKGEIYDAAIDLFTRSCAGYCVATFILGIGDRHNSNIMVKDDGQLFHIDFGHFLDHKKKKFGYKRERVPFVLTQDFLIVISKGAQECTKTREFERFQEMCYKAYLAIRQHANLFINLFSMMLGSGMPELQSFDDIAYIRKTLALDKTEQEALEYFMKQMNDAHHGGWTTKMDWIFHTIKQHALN
# Key:
# [1] = ATG_M_32_XSP2: Attagene TRANS-FACTORIAL Multi-Species (XSP2) HepG2 Assay for M19 Transcription Factor (Internal Marker) (AID 2283826)
# How it was run: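 Total RNA is taken from compound-treated HepG2 cells after 24 h and reverse-transcribed; reporter cDNA is PCR-amplified, end-labelled with 6-FAM, digested with HpaI for 2h at 37 C and sized by capillary electrophoresis. Activity is fitted in the positive direction against DMSO.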
# [2] = system: zebrafish Peroxisome Proliferator-activated Receptor gamma (PPARg), gene 557037; assay: ATG_zfPPARg_XSP2: Attagene TRANS-FACTORIAL Multi-Species (XSP2) HepG2 Assay for zebrafish Peroxisome Proliferator-activated Receptor gamma (PPARg) (AID 2283833);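 also: actives increase reporter signal over DMSO so AC50 reflects activation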
# How it was run: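 Cell-based transactivation of a chimeric zebrafish PPARg-GAL4 receptor was assessed in transiently transfected HepG2 cells after 24 h of treatment. Reporter mRNA induction, detected fluorescently after RT-PCR, was analysed in the positive direction against DMSO.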
# [3] = read-out: Cytochrome P450 3A4 (Homo sapiens) (UniProt P08684); assay: CLD_CYP3A4_24hr: CellzDirect (CLD) Gene Expression Assay for xenobiotic metabolism (CYP3A4) at 24 hours (AID 2283689)
# How it was run: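 Primary human hepatocytes from two donors dosed daily with fresh compound for two days, 0.2% DMSO vehicle. CYP3A4 mRNA at 24 hr by qNPA chemiluminescence; gain-of-signal fit versus DMSO, cytotoxicity flagged by morphology.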
# [4] = read-out: alkyl and aryl transferase (GSTA2), GSTA2 (gene 2939); assay: CLD_GSTA2_24hr: CellzDirect (CLD) Gene Expression Assay for alkyl and aryl transferase (GSTA2) at 24 hours (AID 2283693)
# How it was run: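 Primary human hepatocytes (two donor preparations) dosed daily for two days with chemicals at multiple concentrations (vehicle 0.2% DMSO); GSTA2 mRNA at 24 h measured by qNPA chemiluminescence, gain-of-signal versus DMSO.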
# [5] = target: Serine/threonine-protein phosphatase PP1-alpha catalytic subunit (Homo sapiens) (UniProt P62136); assay: NVS_ENZ_hPPP1CA: NovaScreen (NVS) Enzymatic Assay for human Protein Phosphatase 1 Aatalytic subunit Alpha (PPP1CA) (AID 2283200)
# How it was run: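 Recombinant enzyme activity read by fluorescence with electrophoretic mobility shift separating substrate from product, 1.33 h after dosing; loss of signal vs DMSO baseline. Primary screen in duplicate at 25 uM; actives retested in concentration-response up to 50 uM.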
# [6] = CCTE_Shafer_MEA_dev_active_electrodes_number: CCTE's Neural Network Formation Assay for Number of Active Electrodes, Shafer Lab (AID 2284040);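 also: potency for loss of active electrodes versus DMSO so lower counts are hits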
# How it was run: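 Rat cortical primary cultures, 1.5 x 10^5 cells/well, PEI-coated MEA, laminin drop. Continuous exposure DIV 0–12; full media/compound change DIV 5, 9. Readout: electrodes with mean firing ≥5 spikes/min; AUC across days; loss vs DMSO.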
# [7] = CCTE_Mundy_HCI_hNP1_CellTiter: CCTE's Cell Titer-Glo 2 Assay in human neuroprogenitor cells for Viability, Mundy Lab (AID 2284241);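 as to AC50: a hit is a drop in ATP luminescence versus DMSO meaning reduced viability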
# How it was run: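 Viability read as luminescent ATP content (CellTiter-Glo, 30 min room temperature) twenty-four hours after dosing, relative to DMSO. Cells: WA09-derived hNP1 neuroprogenitors on poly-L-ornithine/laminin, plated 40 to 44 hours before chemical.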
# [8] = Tanguay_ZF_120hpf_OTIC_legacy: (Legacy) Oregon State University Tanguay Lab 120 Hour Post-fertilization zebrafish Assay for Otic Vesicle Malformation (AID 2283639)
# How it was run: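 Otic vesicle malformation is read as a yes/no morphology call at 120 hpf. Exposure is static at 28C with 0.64% (vol/vol) DMSO; embryos that die are excluded from non-mortality endpoints.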
# [9] = system: zebrafish Androgen Receptor (AR), gene 100005148; assay: ATG_zfAR_XSP1: Attagene TRANS-FACTORIAL Multi-Species (XSP1) HepG2 Assay for zebrafish Androgen Receptor (AR) (AID 2283771)
# How it was run: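 HepG2 cells were transiently transfected with a zebrafish AR-GAL4 reporter system and partially stimulated with 3 nM 6-alpha-fluorotestosterone. Reporter mRNA was measured after 24 h dosing by RT-PCR with capillary electrophoresis, and gain-of-signal was fitted relative to DMSO.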
# [10] = target: frog Thyroid hormone Receptor alpha (TRa), thra-a (gene 397942) (UniProt P15204); assay: ATG_frTRa_XSP1: Attagene TRANS-FACTORIAL Multi-Species (XSP1) HepG2 Assay for frog Thyroid hormone Receptor alpha (TRa) (AID 2283804)
# How it was run: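 HepG2 cells transiently transfected with frog TRa-GAL4 chimeric reporter units, dosed 24 hr with 3 nM 6-alpha-fluorotestosterone present; reporter mRNA quantified by RT-PCR, fluorescent labelling and capillary electrophoresis, gain of signal versus DMSO.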
# [11] = target: zebrafish Estrogen Receptor (ER1), esr1 (gene 259252) (UniProt P57717); assay: ATG_zfER1_XSP2: Attagene TRANS-FACTORIAL Multi-Species (XSP2) HepG2 Assay for zebrafish Estrogen Receptor (ER1) (AID 2283816)
# How it was run: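 HepG2 cells transiently transfected with a GAL4-UAS reporter and a chimeric zebrafish ER1-Gal4 construct, dosed 24 h. Reporter mRNA quantified by RT-PCR, labelling, HpaI digestion and capillary electrophoresis, relative to DMSO.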
# [12] = read-out: Cytochrome P450 3A4 (Homo sapiens) (UniProt P08684); assay: CLD_CYP3A4_6hr: CellzDirect (CLD) Gene Expression Assay for xenobiotic metabolism (CYP3A4) at 6 hours (AID 2283680)
# How it was run: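 Primary human hepatocytes (two donor preparations) dosed; CYP3A4 mRNA harvested at 6 h and quantified by qNPA chemiluminescence. Gain of signal fitted against 0.2% DMSO vehicle; cytotoxicity flagged by phase-contrast morphology.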
# [13] = ATG_M_06_XSP1: Attagene TRANS-FACTORIAL Multi-Species (XSP1) HepG2 Assay for M06 Transcription Factor (Internal Marker) (AID 2283790)
# How it was run: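 Transfected HepG2 multi-reporter system treated 24 h in the presence of 3 nM 6-alpha-fluorotestosterone. The M06 internal marker transcript was quantified by RT-PCR with capillary electrophoresis as a background control, and gain of signal was scored versus DMSO.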
# [14] = ATG_M_61_XSP1: Attagene TRANS-FACTORIAL Multi-Species (XSP1) HepG2 Assay for M61 Transcription Factor (Internal Marker) (AID 2283797)
# How it was run: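 HepG2 cells transiently transfected with multiplexed GAL4-driven reporter units, dosed 24 h with 3 nM 6-alpha-fluorotestosterone present. Reporter mRNA quantified by RT-PCR, 6-FAM labelling, HpaI digestion and capillary electrophoresis; internal-marker background control, gain of signal versus DMSO.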
# [15] = LTEA_HepaRG_LDH_cytotoxicity: Cytotoxicity Assessment in the Life Technologies and Expression Analysis (LTEA) Assay (AID 2283563);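 also: LDH activity released into spent culture medium as a marker of cell death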
# How it was run: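 Human HepaRG hepatic cells are treated with test chemicals for 48 h at up to 100 uM in 0.5% DMSO. Cytotoxicity is scored from medium LDH against the vehicle control.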
# [16] = target: human Protein Tyrosine Phosphatase Non-receptor Type 6 (PTPN6), PTPN6 (gene 5777) (UniProt P29350); assay: NVS_ENZ_hPTPN6: NovaScreen (NVS) Enzymatic Assay for human Protein Tyrosine Phosphatase Non-receptor Type 6 (PTPN6) (AID 2283210)
# How it was run: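 Cell-free assay with recombinant PTPN6 expressed in SF9 cells, fluorescent substrate, product separated from substrate by electrophoretic mobility shift; read 1.33 hours after dosing. Primary screen in duplicate at 25 uM, actives retested in concentration series; DMSO baseline.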
# [17] = target: human Ephrin type-A Receptor 1 (EphA1), EPHA1 (gene 2041) (UniProt P21709); assay: NVS_ENZ_hEphA1: NovaScreen (NVS) Enzymatic Assay for human Ephrin type-A Receptor 1 (EphA1) (AID 2283158);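 also: activity is signal loss versus DMSO meaning EphA1 kinase inhibition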
# How it was run: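 Biochemical kinase assay run cell-free; 1 h incubation; readout is fluorescence with mobility-shift separation of product. Concentration-response up to 50 uM for actives from a 25 uM screen.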
# [18] = target: human Phosphoinositide 3-kinase alpha (PI3Ka), PIK3CA (gene 5290) (UniProt P42336); assay: NVS_ENZ_hPI3Ka: NovaScreen (NVS) Enzymatic Assay for human Phosphoinositide 3-kinase alpha (PI3Ka) (AID 2283196)
# How it was run: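 Recombinant human PI3Kα with fluorescent substrate, 1 h, product separated by electrophoretic mobility shift; 25 uM duplicate screen, hits (e.g., 30% inhibition) retested singly up to 50 uM; loss of signal vs DMSO.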
# [19] = Tanguay_ZF_120hpf_PE_legacy: (Legacy) Oregon State University Tanguay Lab 120 Hour Post-fertilization zebrafish Assay for Pericardial Edema (AID 2283640);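 as to AC50: potency for increased incidence of pericardial edema versus DMSO baseline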
# How it was run: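 Read-out is the presence or absence of pericardial edema at 120 hpf under brightfield, with gain of signal fitted against DMSO controls. Larvae (5D wild-type) were statically exposed at 28C with 0.64% final DMSO.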
# NCBI gene 100848466 = assay: NVS_NR_bPR: NovaScreen (NVS) Nuclear Receptor Binding Assay for bovine Progextron Receptor (PR) (AID 2283343);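 as to AC50: actives lower bound radioligand signal below DMSO meaning displacement of the label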
# How it was run: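 Bovine uterine membrane preparation; radioligand displacement read by scintillation counting 18 h after dosing. Primary screen single concentration, 25 uM, in duplicate; actives followed up in concentration series. Signal loss versus DMSO baseline.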
smiles,measurement,setting,value
CC(C)C1CCC(Cc2ccc(Cl)cc2)C1(O)Cn1cncn1 (stereo not drawn),outcome,[1],inactive
same,AC50,[2],inconclusive: 11.1 µM
O=c1ccc(=O)[nH][nH]1,AC50,[3],inconclusive: 20 µM
same,AC50,[4],inconclusive: 20 µM
CC(C)(OOC(C)(C)c1ccccc1)c1ccccc1,AC50,[5],inconclusive: 25 µM
CS(=O)(=O)c1ccc(C(=O)C2C(=O)CCCC2=O)c(Cl)c1COCC(F)(F)F,AC50,[6],inconclusive: 0.0215 µM
same,outcome,[7],inactive
COCC(C)N(C(=O)CCl)c1c(C)csc1C (stereo not drawn),AC50,[8],active: 8.94 µM
C#CCC1=C(C)C(OC(=O)C2C(C=C(C)C)C2(C)C)CC1=O (stereo not drawn),AC50,[9],inconclusive: 151 µM
same,AC50,[10],inconclusive: 100 µM
same,outcome,[11],inactive
same,AC50,[1],inconclusive: 100 µM
CCc1cccc(C)c1N(C(=O)CCl)C(C)COC (stereo not drawn),AC50,[12],active: 0.477 µM
same,outcome,[13],inactive
same,outcome,[14],inactive
same,outcome,[1],inactive
COc1cc(OC)nc(NC(=O)NS(=O)(=O)c2cc(NC=O)ccc2C(=O)N(C)C)n1,AC50,[3],inconclusive: 20 µM
O=Cc1ccco1,AC50,[15],inconclusive: 0.108 µM
Nc1ccc(Oc2ccc(N)cc2)cc1,AC50,[16],active: 17 µM
CCOP(=S)(OCC)OP(=S)(OCC)OCC,AC50,[17],inconclusive: 6 µM
same,AC50,[18],inconclusive: 25 µM
CC1=NNC(=O)N(/N=C/c2cccnc2)C1,AC50,[6],inconclusive: 15 µM
same,AC50,[7],inconclusive: 0.000692 µM
Cc1cc(N=Nc2ccccc2C)ccc1N,AC50,[16],inconclusive: 25 µM
same,AC50,[19],active: 55.7 µM
N#CSCSC#N,AC50,[15],active: 75.7 µM
COC(=O)Nc1nc2ccccc2[nH]1,AC50,[7],active: 9.91 µM
Cc1cc(O)ccc1Cl,outcome,[16],inactive
COCC(=O)N(c1c(C)cccc1C)C(C)C(=O)OC (stereo not drawn),AC50,[5],inconclusive: 25 µM
same,outcome,NCBI gene 100848466,inactive
same,AC50,[8],inconclusive: 201 µM
CCOP(=S)(OCC)Oc1ccc(S(C)=O)cc1 (stereo not drawn),AC50,[17],inconclusive: 11 µM
C[Si](Cn1cncn1)(c1ccc(F)cc1)c1ccc(F)cc1,AC50,[18],inconclusive: 25 µM
same,AC50,[19],active: 9.78 µM
CCN(CC)N=O,AC50,[18],inconclusive: 25 µM
Cc1cnc(C2=NC(C)(C(C)C)C(=O)N2)c(C(=O)O)c1 (stereo not drawn),outcome,[12],inactive
same,outcome,[3],inactive
CC(C)=CC1C(C(=O)OCN2C(=O)C3=C(CCCC3)C2=O)C1(C)C (stereo not drawn),outcome,[18],inactive
same,AC50,[8],inconclusive: 43.9 µM
CCOP(=O)(NC(C)C)Oc1ccc(SC)c(C)c1 (stereo not drawn),AC50,[19],active: 25.6 µM
same,AC50,[2],active: 100 µM
CCCCN(CC)c1c([N+](=O)[O-])cc(C(F)(F)F)cc1[N+](=O)[O-],outcome,[5],inactive
same,AC50,NCBI gene 100848466,inconclusive: 0.012 µM
N#CN=C1SCCN1Cc1ccc(Cl)nc1,AC50,[5],inconclusive: 4.96 µM
O=P(Oc1ccccc1)(Oc1ccccc1)Oc1ccccc1,outcome,[19],inactive
same,outcome,[9],inactive
same,outcome,[13],inactive
same,AC50,[10],inconclusive: 100 µM
same,outcome,[11],inactive
same,AC50,[2],active: 9.78 µM

# 3 neighbouring records from above, for reference:
smiles,measurement,setting,value
C[Si](Cn1cncn1)(c1ccc(F)cc1)c1ccc(F)cc1,AC50,[19],active: 9.78 µM
CCN(CC)N=O,AC50,[18],inconclusive: 25 µM
Cc1cnc(C2=NC(C)(C(C)C)C(=O)N2)c(C(=O)O)c1 (stereo not drawn),outcome,[12],inactive
